US20250147051A1, “METHOD FOR DETECTING A TAU PROTEIN IN A SALIVA SAMPLE” (GTINVENT LIMITED, priority 2022, published 2025)
Residue numbers refer to the chain shown, from its start. Results are given in words; binding and its absence hold for the method and conditions named. Some entries that bind do so weakly or less than the wild type. Each block holds one binder with its values, some of them ahead of it.

Amino acid sequences for entries named in this document (tags omitted). A change or cut given only in a name is not applied to a line headed by its entry.
UniProt P10637: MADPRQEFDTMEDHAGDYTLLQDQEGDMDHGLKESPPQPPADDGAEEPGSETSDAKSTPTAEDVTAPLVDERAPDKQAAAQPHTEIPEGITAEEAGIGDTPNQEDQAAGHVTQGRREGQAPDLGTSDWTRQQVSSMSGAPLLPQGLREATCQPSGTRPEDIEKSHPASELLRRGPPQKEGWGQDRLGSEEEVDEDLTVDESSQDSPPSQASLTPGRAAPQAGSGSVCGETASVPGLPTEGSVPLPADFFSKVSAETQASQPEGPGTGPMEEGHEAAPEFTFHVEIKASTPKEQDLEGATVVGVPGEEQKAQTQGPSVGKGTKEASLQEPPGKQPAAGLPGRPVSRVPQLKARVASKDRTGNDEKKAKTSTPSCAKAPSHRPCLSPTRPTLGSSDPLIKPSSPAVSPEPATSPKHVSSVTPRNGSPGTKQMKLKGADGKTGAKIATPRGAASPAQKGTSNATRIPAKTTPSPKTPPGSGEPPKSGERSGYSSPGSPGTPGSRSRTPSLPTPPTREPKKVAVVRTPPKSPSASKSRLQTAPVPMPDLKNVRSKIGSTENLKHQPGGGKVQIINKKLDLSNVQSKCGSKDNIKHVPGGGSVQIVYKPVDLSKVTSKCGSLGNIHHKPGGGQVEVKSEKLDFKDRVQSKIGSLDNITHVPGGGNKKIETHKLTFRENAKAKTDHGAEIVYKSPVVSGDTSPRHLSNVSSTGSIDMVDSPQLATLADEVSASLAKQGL
UniProt P10636: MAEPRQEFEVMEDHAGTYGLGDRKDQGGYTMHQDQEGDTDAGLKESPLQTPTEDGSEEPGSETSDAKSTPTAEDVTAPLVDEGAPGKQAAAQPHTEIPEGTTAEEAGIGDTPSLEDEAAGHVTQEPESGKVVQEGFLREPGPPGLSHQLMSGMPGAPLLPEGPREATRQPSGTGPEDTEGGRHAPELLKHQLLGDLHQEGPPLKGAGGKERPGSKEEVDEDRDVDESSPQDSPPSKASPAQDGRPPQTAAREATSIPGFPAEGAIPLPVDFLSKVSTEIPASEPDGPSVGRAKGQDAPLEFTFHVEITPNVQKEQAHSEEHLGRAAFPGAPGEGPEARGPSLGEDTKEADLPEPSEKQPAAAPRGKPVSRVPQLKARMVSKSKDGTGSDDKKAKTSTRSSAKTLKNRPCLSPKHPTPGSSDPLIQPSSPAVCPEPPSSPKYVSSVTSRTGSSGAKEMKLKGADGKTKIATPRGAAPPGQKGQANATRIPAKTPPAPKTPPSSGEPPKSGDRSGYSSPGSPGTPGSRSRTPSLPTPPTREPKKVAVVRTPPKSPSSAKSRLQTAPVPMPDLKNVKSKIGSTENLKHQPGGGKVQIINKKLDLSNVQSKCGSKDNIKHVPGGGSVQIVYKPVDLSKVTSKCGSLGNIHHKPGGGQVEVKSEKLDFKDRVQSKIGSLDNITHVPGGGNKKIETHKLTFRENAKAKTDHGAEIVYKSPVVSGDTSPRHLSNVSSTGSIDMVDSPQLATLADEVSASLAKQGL

What was measured:
[1] = target: mouse tau (Isoform Tau-A) (mouse) (UniProt P10637); assay: Western blot
[2] = target: mouse tau (Isoform Tau-A) (mouse) (UniProt P10637); assay: Western blot of brain homogenates
[3] = target: human tau 296-390 (Line 1 transgene fragment) (human) (UniProt P10636); assay: sandwich ELISA on plasma, S1G2 scAb detection
[4] = target: mouse tau (Isoform Tau-A) (mouse) (UniProt P10637); assay: sandwich ELISA on plasma, S1G2 scAb detection
[5] = target: mouse tau (Isoform Tau-A) (mouse) (UniProt P10637); assay: sandwich ELISA on brain homogenate (incl. wild type), S1G2 scAb detection
[6] = target: full length human tau protein 2N4R (hT40) (human) (UniProt P10636); assay: ELISA
[7] = target: tau fragment 1-319 (human) (UniProt P10636); assay: ELISA
[8] = target: human tau 296-390 (Line 1 transgene fragment) (human) (UniProt P10636); assay: Western blot
[9] = target: human tau 296-390 (Line 1 transgene fragment) (human) (UniProt P10636); assay: Western blot of brain homogenates
[10] = target: human tau 296-390 (Line 1 transgene fragment) (human) (UniProt P10636); assay: sandwich ELISA on plasma, S1D12 mAb capture
[11] = target: mouse tau (Isoform Tau-A) (mouse) (UniProt P10637); assay: sandwich ELISA on plasma, S1D12 mAb capture
[12] = target: mouse tau (Isoform Tau-A) (mouse) (UniProt P10637); assay: sandwich ELISA on brain homogenate (incl. wild type), S1D12 mAb capture

B3: S1G2 mAb (antibody, mouse IgG2a, V domains shown)
VH: QVQLQESGPSLVKPSQTLSLTCTVSGFSLTSNSVGWVRQAPGKAPEWVAGIDTDGEEGYNPALNSRLSITRDTSKSQVSLSLSSVTSEDTAVYYCGRSYRADGLAYGYVQAIDYWGPGLLVTVSS
VL: QAVVTQPSSVSGSLGQRVSITCSGSFIGISSVGWFQQLPGSGLRTIIVASDGRPSGVPDRFSMSKSGNTATLTISSLQAEDEADYFCGSSDRTPYTGVFGSGTRLTVLG
binding [8]: binds
binding [1]: binds
binding [9]: binds
binding [2]: binds

B4: S1E12 mAb (antibody, mouse IgG2a, V domains shown)
VH: B3 VH with T30G
VL: B3 VL with Q1R, A2V, V4R, P94Q
binding [6]: binds

B5: S1G2 scAb (scFv)
scFv: QVQLQESGPSLVKPSQTLSLTCTVSGFSLTSNSVGWVRQAPGKAPEWVAGIDTDGEEGYNPALNSRLSITRDTSKSQVSLSLSSVTSEDTAVYYCGRSYRADGLAYGYVQAIDYWGPGLLVTVSSEGKSSGASGESKVDDQAVVTQPSSVSGSLGQRVSITCSGSFIGISSVGWFQQLPGSGLRTIIVASDGRPSGVPDRFSMSKSGNTATLTISSLQAEDEADYFCGSSDRTPYTGVFGSGTRLTVLG
binding [10]: binds
binding [11]: binds
binding [12]: binds

Further lines, results first:

binding [1]: binds
binding [2]: binds
binding [3]: binds
binding [4]: binds
binding [5]: binds
B1: S1D12 mAb (antibody, mouse IgG2a, V domains shown)
VH: QVQLQESGPSLVKPSQTLSLTCTVSGFSLNNNAVGWVRQAPGKVPESLVGCSSDGTCYYNSALKSRLDITRDTSKNQISLSLSSVTTDDAAVYYCTRGHYSIYGYDYLGTIDYWGPGLLVTVSS
VL: QAVLTQPSSVSGSLGQRVSITCSGSSSNVGGGNSVGWYQHLPGSGLKTIIYDTNSRPSGVPDRFSGSRSGNTATLTINSLQAEDEGDYYCVTGDSTTHDDLVGSGTRLTVLG

binding [6]: binds
binding [7]: binds
B2: CA7 scAb (scFv, V domains shown)
VH: RVRLQGSGPSLVKPSQTLSLTCTVSGFSFDSYYVGWVRQAPGKALEWLGNIYSTGRAFYNPALKSRLSITRDTSKSQVSLSVSSVTIEDTALYYCVRGSYYHGGGNGMVDFFDYWSPGLLVTVSS
VL: QVVRTQPSSVSGSLGQRVSITCSGSSSNVGYGNYVGWFQQVPGSAPKLLIYAATSRASGVPDRFSGSRSGNTATLTIDSLQAEDEADYYCSSYQRGNTGVFGSGTRLTVLG
